Data as given in publication doi:10.1101/2024.01.24.576984.

Sequences of proteins named here, by UniProt entry; tags and fusion partners are left off. A change or cut given only in a name is not applied to a line headed by its entry. Residues count along the entry.
UniProt Q9NVM9: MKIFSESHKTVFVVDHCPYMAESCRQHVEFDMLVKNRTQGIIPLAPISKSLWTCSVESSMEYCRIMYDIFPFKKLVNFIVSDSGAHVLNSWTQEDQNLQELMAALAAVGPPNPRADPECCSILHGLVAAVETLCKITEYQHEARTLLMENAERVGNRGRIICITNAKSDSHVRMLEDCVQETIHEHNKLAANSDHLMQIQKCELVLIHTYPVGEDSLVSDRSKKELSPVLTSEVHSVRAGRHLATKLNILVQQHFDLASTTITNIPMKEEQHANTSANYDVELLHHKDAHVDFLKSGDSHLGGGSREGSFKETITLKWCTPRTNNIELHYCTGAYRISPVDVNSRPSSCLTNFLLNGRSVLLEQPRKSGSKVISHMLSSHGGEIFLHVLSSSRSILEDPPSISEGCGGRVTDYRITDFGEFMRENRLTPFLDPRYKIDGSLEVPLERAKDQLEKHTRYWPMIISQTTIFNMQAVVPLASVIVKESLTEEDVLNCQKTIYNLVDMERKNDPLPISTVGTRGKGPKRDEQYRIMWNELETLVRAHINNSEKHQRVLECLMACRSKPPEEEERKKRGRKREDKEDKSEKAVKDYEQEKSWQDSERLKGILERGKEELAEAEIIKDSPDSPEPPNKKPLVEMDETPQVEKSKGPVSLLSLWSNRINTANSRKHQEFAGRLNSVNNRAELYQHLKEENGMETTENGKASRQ
2SC-INTS13ΔC: residues 1-648 of Q9NVM9
UniProt Q8NBZ0: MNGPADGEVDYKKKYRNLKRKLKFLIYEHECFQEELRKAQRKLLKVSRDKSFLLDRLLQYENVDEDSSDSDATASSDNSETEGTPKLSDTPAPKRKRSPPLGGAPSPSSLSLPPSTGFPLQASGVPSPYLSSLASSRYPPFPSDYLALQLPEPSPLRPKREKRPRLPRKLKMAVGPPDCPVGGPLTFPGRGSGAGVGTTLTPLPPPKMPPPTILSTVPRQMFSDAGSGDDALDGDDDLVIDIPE
UniProt Q9NVR2: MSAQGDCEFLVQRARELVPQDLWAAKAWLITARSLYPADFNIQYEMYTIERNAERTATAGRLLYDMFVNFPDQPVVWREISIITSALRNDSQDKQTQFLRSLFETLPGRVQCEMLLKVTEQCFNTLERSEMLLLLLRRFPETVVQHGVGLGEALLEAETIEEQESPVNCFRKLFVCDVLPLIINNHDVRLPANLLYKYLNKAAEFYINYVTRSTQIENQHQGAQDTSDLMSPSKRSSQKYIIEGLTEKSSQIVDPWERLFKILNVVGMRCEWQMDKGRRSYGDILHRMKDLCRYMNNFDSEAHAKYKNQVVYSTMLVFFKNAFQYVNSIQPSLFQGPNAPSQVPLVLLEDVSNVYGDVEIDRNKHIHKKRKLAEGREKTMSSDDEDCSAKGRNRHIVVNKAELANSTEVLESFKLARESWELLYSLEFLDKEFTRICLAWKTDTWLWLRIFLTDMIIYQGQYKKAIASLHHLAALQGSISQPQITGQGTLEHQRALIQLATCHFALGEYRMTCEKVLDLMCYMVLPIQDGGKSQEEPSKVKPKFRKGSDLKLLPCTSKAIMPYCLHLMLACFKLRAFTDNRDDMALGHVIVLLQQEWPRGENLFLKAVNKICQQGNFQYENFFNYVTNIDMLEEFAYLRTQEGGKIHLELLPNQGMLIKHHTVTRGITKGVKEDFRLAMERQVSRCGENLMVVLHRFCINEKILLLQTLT
UniProt Q96N11: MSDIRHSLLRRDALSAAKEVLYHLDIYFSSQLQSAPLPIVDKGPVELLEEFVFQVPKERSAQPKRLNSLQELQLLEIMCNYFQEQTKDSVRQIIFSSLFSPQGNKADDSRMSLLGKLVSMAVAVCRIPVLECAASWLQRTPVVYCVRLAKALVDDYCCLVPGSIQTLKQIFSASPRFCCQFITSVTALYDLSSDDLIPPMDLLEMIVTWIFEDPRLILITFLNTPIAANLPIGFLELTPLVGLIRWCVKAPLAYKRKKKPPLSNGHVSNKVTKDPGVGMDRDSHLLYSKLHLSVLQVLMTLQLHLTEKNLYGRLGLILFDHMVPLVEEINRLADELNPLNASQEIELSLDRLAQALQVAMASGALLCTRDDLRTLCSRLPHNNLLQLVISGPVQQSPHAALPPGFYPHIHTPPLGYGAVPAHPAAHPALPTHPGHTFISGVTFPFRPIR
UniProt Q9ULD9: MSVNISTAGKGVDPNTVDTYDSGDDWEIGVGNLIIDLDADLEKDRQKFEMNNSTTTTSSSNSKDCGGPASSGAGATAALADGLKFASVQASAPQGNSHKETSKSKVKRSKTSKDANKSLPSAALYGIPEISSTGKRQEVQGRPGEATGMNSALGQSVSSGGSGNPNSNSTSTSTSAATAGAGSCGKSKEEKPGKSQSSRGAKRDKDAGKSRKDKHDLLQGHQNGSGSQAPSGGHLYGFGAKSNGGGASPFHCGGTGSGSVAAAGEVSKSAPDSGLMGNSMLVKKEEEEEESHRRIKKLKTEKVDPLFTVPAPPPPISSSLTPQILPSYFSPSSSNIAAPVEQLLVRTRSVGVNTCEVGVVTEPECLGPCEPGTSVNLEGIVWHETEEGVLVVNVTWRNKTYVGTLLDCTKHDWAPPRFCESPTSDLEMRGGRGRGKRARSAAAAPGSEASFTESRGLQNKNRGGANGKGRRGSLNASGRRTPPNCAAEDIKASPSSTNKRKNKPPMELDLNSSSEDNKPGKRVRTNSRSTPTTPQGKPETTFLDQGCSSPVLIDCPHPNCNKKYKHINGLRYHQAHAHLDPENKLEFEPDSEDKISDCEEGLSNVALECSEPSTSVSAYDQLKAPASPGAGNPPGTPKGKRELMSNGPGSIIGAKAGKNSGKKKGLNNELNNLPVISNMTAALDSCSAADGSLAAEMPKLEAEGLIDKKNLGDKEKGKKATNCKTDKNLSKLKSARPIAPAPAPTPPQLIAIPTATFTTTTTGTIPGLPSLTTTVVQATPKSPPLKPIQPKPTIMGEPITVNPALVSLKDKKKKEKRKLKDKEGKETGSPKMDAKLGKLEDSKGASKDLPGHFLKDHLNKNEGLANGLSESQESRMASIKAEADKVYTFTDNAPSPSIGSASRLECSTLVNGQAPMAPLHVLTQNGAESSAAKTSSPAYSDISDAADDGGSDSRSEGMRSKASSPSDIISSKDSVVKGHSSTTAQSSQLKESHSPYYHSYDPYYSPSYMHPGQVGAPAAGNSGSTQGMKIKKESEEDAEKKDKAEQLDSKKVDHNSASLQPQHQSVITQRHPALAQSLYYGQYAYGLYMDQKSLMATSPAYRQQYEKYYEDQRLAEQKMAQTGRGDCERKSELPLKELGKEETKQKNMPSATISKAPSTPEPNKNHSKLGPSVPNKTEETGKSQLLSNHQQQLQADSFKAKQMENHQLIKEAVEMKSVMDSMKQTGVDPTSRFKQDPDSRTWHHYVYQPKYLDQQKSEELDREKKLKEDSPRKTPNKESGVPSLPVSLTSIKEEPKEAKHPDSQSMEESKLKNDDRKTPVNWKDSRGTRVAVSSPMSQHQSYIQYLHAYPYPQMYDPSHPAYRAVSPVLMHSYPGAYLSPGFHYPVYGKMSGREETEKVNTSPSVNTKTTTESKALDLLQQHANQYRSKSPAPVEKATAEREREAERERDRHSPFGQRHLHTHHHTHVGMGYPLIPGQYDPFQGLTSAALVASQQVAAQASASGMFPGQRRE
UniProt Q96HW7: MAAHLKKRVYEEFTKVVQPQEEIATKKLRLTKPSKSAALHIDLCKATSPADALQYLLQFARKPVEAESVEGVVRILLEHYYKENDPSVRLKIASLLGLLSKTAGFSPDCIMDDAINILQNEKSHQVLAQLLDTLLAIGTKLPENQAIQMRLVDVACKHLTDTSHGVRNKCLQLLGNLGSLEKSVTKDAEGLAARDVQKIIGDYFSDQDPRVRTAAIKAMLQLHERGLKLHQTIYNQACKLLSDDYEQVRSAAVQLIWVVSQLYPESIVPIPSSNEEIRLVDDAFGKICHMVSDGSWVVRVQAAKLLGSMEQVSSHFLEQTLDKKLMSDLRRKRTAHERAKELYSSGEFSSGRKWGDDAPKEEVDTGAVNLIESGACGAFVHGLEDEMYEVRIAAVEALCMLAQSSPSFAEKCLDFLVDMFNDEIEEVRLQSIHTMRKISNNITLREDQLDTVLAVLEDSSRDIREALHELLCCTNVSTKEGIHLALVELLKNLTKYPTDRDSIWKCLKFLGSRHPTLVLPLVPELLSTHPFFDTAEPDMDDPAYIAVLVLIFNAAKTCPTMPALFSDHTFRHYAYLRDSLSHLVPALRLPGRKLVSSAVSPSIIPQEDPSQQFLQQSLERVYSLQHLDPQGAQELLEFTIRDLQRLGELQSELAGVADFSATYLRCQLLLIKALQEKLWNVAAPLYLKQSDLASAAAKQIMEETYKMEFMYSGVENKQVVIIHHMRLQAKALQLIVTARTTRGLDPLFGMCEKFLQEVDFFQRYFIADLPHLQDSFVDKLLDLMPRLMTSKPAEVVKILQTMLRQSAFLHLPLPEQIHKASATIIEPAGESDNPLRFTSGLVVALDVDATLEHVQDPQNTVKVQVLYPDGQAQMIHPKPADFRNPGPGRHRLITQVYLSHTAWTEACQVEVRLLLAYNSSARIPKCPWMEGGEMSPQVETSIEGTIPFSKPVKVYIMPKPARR
UniProt Q6P9B9: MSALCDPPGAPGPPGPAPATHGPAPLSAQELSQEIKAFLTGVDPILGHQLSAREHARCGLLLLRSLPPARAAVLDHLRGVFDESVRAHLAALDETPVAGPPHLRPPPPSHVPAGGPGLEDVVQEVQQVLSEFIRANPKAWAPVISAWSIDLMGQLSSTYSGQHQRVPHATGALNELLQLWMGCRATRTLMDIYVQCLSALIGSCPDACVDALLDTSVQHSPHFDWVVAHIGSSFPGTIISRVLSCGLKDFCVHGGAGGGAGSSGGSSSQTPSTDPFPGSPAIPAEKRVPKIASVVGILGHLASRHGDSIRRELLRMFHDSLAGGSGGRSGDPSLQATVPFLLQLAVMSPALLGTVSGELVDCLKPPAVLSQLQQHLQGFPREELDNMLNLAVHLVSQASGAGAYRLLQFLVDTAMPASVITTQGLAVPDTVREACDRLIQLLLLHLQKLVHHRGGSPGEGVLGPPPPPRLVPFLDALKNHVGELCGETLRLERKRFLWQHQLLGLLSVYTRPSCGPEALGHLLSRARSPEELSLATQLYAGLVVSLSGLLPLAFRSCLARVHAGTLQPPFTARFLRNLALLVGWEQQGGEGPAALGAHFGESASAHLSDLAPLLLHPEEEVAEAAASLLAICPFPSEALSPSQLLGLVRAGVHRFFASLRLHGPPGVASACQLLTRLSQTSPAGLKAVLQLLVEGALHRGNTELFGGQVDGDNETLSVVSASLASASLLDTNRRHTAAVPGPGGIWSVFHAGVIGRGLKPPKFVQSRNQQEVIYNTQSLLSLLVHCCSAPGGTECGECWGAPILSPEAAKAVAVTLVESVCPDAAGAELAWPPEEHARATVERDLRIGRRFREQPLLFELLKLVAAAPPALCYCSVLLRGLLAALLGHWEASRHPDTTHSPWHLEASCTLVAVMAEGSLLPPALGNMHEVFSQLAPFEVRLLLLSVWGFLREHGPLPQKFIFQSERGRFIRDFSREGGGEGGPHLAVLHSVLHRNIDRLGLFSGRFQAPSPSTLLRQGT
UniProt Q75QN2: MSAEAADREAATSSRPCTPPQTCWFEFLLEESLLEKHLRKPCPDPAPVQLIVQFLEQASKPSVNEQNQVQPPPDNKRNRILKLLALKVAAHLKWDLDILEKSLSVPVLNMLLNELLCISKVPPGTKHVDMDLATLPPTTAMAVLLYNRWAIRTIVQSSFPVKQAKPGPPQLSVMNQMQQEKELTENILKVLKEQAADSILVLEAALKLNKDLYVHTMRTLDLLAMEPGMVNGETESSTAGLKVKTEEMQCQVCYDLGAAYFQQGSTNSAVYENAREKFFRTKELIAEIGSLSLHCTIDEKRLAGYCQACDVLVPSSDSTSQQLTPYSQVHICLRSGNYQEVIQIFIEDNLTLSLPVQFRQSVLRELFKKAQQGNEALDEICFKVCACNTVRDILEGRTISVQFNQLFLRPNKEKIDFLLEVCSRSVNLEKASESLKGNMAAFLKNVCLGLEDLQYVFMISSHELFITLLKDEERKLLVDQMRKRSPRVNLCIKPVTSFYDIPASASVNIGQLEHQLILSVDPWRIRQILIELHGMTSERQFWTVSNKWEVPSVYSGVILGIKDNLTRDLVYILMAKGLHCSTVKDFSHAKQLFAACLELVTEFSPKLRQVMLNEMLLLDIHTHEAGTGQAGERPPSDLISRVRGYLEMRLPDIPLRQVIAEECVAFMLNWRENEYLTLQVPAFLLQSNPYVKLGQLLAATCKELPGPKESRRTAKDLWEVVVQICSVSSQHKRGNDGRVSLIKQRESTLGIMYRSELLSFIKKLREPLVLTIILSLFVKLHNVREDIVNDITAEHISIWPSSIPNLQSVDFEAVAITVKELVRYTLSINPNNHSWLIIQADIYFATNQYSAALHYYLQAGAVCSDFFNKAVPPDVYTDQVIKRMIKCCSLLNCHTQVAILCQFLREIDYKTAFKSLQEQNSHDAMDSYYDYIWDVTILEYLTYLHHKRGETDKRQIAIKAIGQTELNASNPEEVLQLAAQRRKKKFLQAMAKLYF

These substances were tested against 2SC-INTS13ΔC (human) (UniProt Q9NVM9) (assay: affinity purification with mass spectrometry).

binding, binds:
INO80E (from UniProt Q8NBZ0 1-244), INTS10 (from UniProt Q9NVR2 1-710), INTS14 (from UniProt Q96SY0 1-518), INTS15 (from UniProt Q96N11 1-449), TLE1 (from UniProt Q04724 1-770), TLE3 (from UniProt Q04726 1-772), ZNF608 (from UniProt Q9ULD9 1-1512)

The substances below were run against INTS10-C2S (human) (UniProt Q9NVR2) (assay: affinity purification with mass spectrometry).

binding, binds:
INTS2 (from UniProt Q9H0H0 1-1196), INTS3 (from UniProt Q68E01 1-1043), INTS4 (from UniProt Q96HW7 1-963), INTS5 (from UniProt Q6P9B9 1-1019), INTS6 (from UniProt Q9UL03 1-887), INTS7 (from UniProt Q9NVH2 1-962), INTS8 (from UniProt Q75QN2 1-995), INTS9 (from UniProt Q9NV88 1-658), INTS11 (from UniProt Q5TA45 1-600), INTS13 (from UniProt Q9NVM9 1-706), INTS15 (from UniProt Q96N11 1-449), PP2Ac (from UniProt P67775) (enzyme), ZNF608 (from UniProt Q9ULD9 1-1512)

These are yes or no findings as the source states them, for the method shown. Binding seen in cells or lysates may run through a third protein. A yes stands for co-enrichment or nearness to the bait. Other partners may have been found.
